This passage reports z-score results from PubChem BioAssay AID1347423 (Functional Genomics Laboratory (NCATS/FGL), 2020).

The campaign covered roughly 52,000 sequences. About 210 (0.4%) were called active.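 Rule for the calls: active = gene whose silencing raises cell survival under the drug, median off-target-corrected z-score across its silencing RNAs 2 or more; inactive = the rest.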 The list shows a part of the results.

The nature of this experiment: Resistance to Poly (ADP-Ribose) Polymerase inhibitor: Gene Identification via Genome-wide siRNA Screen. The note with it: mouse BRCA2 R2336H ES cells, olaparib, CellTiter-Glo viability; active compounds read high. Summed up: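 Mouse BRCA2 R2336H ES cells were reverse-transfected with siRNA (20 nM final), treated at 48 h with 500 nM olaparib, and read by CellTiter-Glo after 72 h. Scores: MAD-based z per siRNA, median per gene, seed off-target correction.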
In general terms: Cellular ATP, detected with luciferase, serves as a proxy for viable cell number.
Consider GGACAGCUACAAGAGGAGATT against Fbxl4, for which the z-score is inactive: -0.46.

In the case of “GGCUAUGUUACCAGAAAGCTT against 2310010G13Rik”, the z-score was inactive: 2.

Take GGGCCACCCAAAAUAACUCTT against Mtl5: the z-score was inactive: 0.37.

Consider CCCACACAAUUCUCAUGGGTT against Olfr366, for which the z-score was inactive: 1.7.

On to GGGAAUCAACGCAAAGUUGTT against Pcdhga5, for which the z-score was inactive: 0.429.

In the case of “GGUAUCAGACAGCUGUAACTT against 1810030J14Rik”, the z-score was inactive: -0.138.

As to GCUAAUGAUACAGAAGUUGTT against Snrpb2, the z-score was inactive: 0.0437.

Turning to GGAGGAACAGAGAGUUUGGTT against Kifc2, the z-score was inactive: 1.08.

Take GCAAUUGAGAUCUAUACAGTT against Napa: the z-score was inactive: 0.715.

Consider “AACAGGAAUCUUCUGUAGUTT against 2210019E14Rik”, for which the z-score is inactive: -0.227.

As for GUUCUUACACCCAUCUUGATT against Olfr1414, the z-score was inactive: 2.56.

With GGACACCAUGGAAGACUCUTT against Krtap16-8, the z-score was inactive: 0.454.

GGCAAGGAUGAUGUCUUCGTT against Upk1a: the z-score is inactive: -1.87.

Regarding “CCAGGAUUGGACUGAUAGUTT against 0610010D20Rik”, the z-score was inactive: -0.154.

For the sequence “GGAAAACACACUUUUCUUUTT against 9030625G08Rik”, the z-score was inactive: -0.0193.

On to GCCUAACGGAGAGGUAUUUTT against Gal3st1, for which the z-score is inactive: -0.0688.

In the case of GCAUAGAUGAAGCAAUACUTT against Ugp2, the z-score was inactive: -0.234.

With GGCAUUGCAUGUGCACGAUTT against Ror1, the z-score was inactive: -0.0564.

GCAAUAACCCAAUUCCUGATT against Phex: the z-score was inactive: -0.693.

Turning to GGCAACAAAUCAAAGCAGCTT against Anxa7, the z-score is inactive: 0.066.

In the case of GCCAAGGUUAUCAUGAAUGTT against F13a, the z-score is inactive: 0.684.

With GGCAGGAGCAAAACAUUUUTT against Olfr1111, the z-score was inactive: -0.768.

Consider GGUCCUCAGCAGUCAUCAUTT against Sprr2h, for which the z-score was inactive: -1.34.

With GGUCGAAAGAAUAAUUUGUTT against Cct6a, the z-score is inactive: -2.15.

Consider GGAACUAACAGCCCUACUATT against Sprn, for which the z-score is inactive: -1.33.

Turning to GCUAAGCUUGUCUAAAAUCTT against Ttk, the z-score is inactive: 0.0426.

CCCAAAGCGUGACUGUCAATT against Sema4b: the z-score is inactive: 0.671.

With CACGACCUAGGUGUGACCATT against Arrdc2, the z-score was inactive: -1.58.

On to “GCGAGAAGCUUUAGAACGATT against D19Ertd721e”, for which the z-score is inactive: 0.59.

For GGUCAAUGGAGUAGAUUUATT against Pard3, the z-score was inactive: 0.681.

For the sequence GCCAAGUAGUAUGUUUCUUTT against Sprn, the z-score was inactive: 0.747.

Turning to GGAAUACUGGUCUUGCUGUTT against Fbxo23, the z-score was inactive: 0.738.

For the sequence GGAGCGAGAUACUCCUAAATT against Epha6, the z-score is inactive: 0.585.

For GCAUAAGAAGCAACGUGUGTT against Strn4, the z-score is inactive: 3.02.

Consider CCCUUCCUUUUACCAACAATT against Tmod4, for which the z-score is inactive: 1.51.

Regarding CCAUGACUACCUGCCUCUGTT against LOC328644, the z-score is inactive: 0.768.

Take “GGAAAUAGAAGAAAAACUCTT against 9430010O03Rik”: the z-score is inactive: 0.871.

GCCUCAGCAUUACCACUAUTT against Pof1b: the z-score is inactive: 2.18.

As for CCCAAAGUUACAACACUGUTT against LOC380907, the z-score was inactive: -0.606.

On to GGAUUUAGGCUAGACCGGGTT against BB220380, for which the z-score is inactive: 0.294.

As for GCUAGCAAGUGAGAUGGAGTT against Mbd3l1, the z-score is inactive: -1.17.

As for GGUUGACAUCGACCAAUCATT against Klhl1, the z-score was active: 1.3.

As to GCAACAACCACCAAAUCUATT against Muc10, the z-score is inactive: -1.45.

For “CCUGUGCUCUGAGUUUGGCTT against 1700111I05Rik”, the z-score is inactive: -1.94.

In the case of GCCUACAAGCCAUGAACAATT against Mybbp1a, the z-score was inactive: -1.84.

Take GGCAAGCUUACAAAAUGGATT against Pgbd5: the z-score was inactive: 0.572.

Consider CGGUAUCAACAUUCUGGCUTT against Clm6, for which the z-score is inactive: 0.767.

For the sequence GCAGACAAAGAUCCUAUGCTT against Atp2b3, the z-score was inactive: -1.83.

Consider CCCACAGCUCUGACAUUUUTT against Fbxo6b, for which the z-score is inactive: -0.82.

For the sequence GGCUGAAGCAGUCUGUUGCTT against Rpp14, the z-score was inactive: -0.655.

With CCCUCAAUCUAACAGUGCATT against Dsg1b, the z-score is inactive: -0.599.

Turning to “GGAGAGGAAGAUUUUCUCCTT against 1700019P01Rik”, the z-score was inactive: 2.18.

For UAACCAAGAGGGUAAAAAUTT against ADAM26b, the z-score was inactive: 0.782.

As to “GGAAAAUCUAUAGGUAGAGTT against B230104P22Rik”, the z-score is inactive: 1.51.

As to CCAAGUGGUACUAAUAAAUTT against Ptpn4, the z-score is inactive: 0.327.

Consider GCUGAUUUUAACAAUACCUTT against Fos, for which the z-score is inactive: 1.16.

For GCGGGUGUACUUAUGGUGATT against Glul, the z-score was inactive: -0.00283.

Consider GGUAUGGCGUAAACCAGCUTT against Alad, for which the z-score was inactive: 0.941.

GCUAGAUCCCGUGCUUAAGTT against Bpy2ip1: the z-score was inactive: 2.09.

As for GGGCCACACAGAAAUGGUUTT against Ank1, the z-score is inactive: 0.219.

Consider “GCCAAUAAAUCUCUUCCAATT against 0610006I08Rik”, for which the z-score is inactive: 0.682.

On to CGGGAUCCAGCCUCUAAGUTT against Palm, for which the z-score was inactive: 0.0555.

As to GGACUUUGCUAAAUCCUGUTT against Edg5, the z-score is inactive: 0.772.

Turning to GCUCUGGACUUCGGUAGAUTT against Adrb1, the z-score is inactive: 1.32.

Take “GGGUUUUCUUGUGUGAAAATT against 2510048O06Rik”: the z-score is inactive: -3.5.

GAUUAAUAGUGGUUUCUGATT against Olfr1219: the z-score was inactive: -0.34.

With CCAUGUACCAGAUUAAGUATT against Krt2-8, the z-score is inactive: -0.275.

For GCCUUCUGAUAACCUACUATT against Mefv, the z-score is inactive: -0.353.

Turning to “CGUCACUGGUGGUAUCAACTT against MGI:3576664”, the z-score is inactive: 0.0983.

Take GCCUGGAUUUAAUUUAUGGTT against Sv2a: the z-score was inactive: 1.55.

Consider GGGACUGUCCUUUUUGAAATT against Unc119, for which the z-score is inactive: 0.266.

On to “GGUGGAUUUGAACCCAAAATT against 1810055D05Rik”, for which the z-score is inactive: 1.04.

As to GGAAGUCAGUGAAAAAAUUTT against Csng, the z-score is inactive: -0.182.

GUAAGCAGCAACAGAGGCUTT against Tnfsf7: the z-score is inactive: -2.15.

Turning to GGGAUGGAAGACGUACAGATT against Alox12e, the z-score is inactive: -0.347.

For the sequence GGUCAAAAACUUGACUCGUTT against BC020354, the z-score is inactive: -1.52.

In the case of “GGAUCUCGUGGGCUACAUUTT against 1300013J15Rik”, the z-score was inactive: -2.34.

In the case of GCUGAUGGCACUAAACACUTT against BC038479, the z-score is inactive: 0.125.

GGAUUACACACCUACGAUCTT against Taf10: the z-score is inactive: 1.4.

In the case of GGAGACUUCAGUGCCUCUUTT against Slc16a11, the z-score was inactive: -1.36.

As for GGUUCCAUGAGAAAAGGUUTT against F2r, the z-score was inactive: -0.549.

Regarding GGCCGAUUGUGAUGAAUUCTT against Depdc1b, the z-score was inactive: -0.19.

Turning to GGGCCAAACCCAGAACUAUTT against Sema4g, the z-score is inactive: -0.77.

Regarding GGUGAAGAGGAAGAUCCUGTT against Dullard, the z-score is inactive: 1.48.

In the case of GGGUGCCGUGGUCAUUUUATT against Ccnd3, the z-score is inactive: -1.18.

For GGCCUUCUAUACUACAGACTT against Hdac1, the z-score is inactive: 0.26.

Consider GGCUAACUUUGACACGAACTT against Cyfip2, for which the z-score was inactive: -0.309.

With GCAUGUCCAAAGUGGUACCTT against Srd5a2l2, the z-score is inactive: 1.05.

For GGAAUUUCUUCAGGACACUTT against Procr, the z-score is inactive: 0.479.

Take GGAGUUUGAUCUGCUUCGGTT against Kctd6: the z-score is inactive: 0.442.

As for GGUGAUAUUGCCUAGGUACTT against Fmod, the z-score is inactive: 0.475.

In the case of CCGUAUGAUUGUCCAAGAGTT against Nckipsd, the z-score was inactive: 0.477.

Turning to “GGACCUCUUGUAUUUAUAATT against 6030463G20Rik”, the z-score is inactive: -0.711.

Regarding “GCGUGUUCACUUGUGUGGUTT against C330006K01Rik”, the z-score was inactive: 0.0937.

For GAUGGUCACCCUGCUGAUUTT against Cklfsf7, the z-score was inactive: 1.73.

With “GGACCGUGUCUCUGGAAAATT against 2310016C16Rik”, the z-score was inactive: -0.309.

As to GGAAGCUGAUGGCUAUGACTT against Arc, the z-score is inactive: -1.62.

Take GGUGAUUAUCGAGAUGAUCTT against Dpagt1: the z-score was inactive: 1.16.

Consider GGAGAAACCUGUGUGCAGATT against Tulp4, for which the z-score was inactive: 0.613.

For GCUACAAUAUGACAAGUGUTT against Adamts5, the z-score is active: 2.82.

As to GCUUGUAUUGCUUGUCUUUTT against Olfr172, the z-score is inactive: 0.463.

Take GGUGGACACAGCUUAAAGCTT against V1rf3: the z-score was inactive: -0.815.

Regarding GGAAAGAAUGUUUUGUUUCTT against Phex, the z-score is inactive: 0.215.

With CGAUUACAGCCUUUGUAGATT against Atp2a2, the z-score was inactive: -0.805.

For “CCACACUUGCUGAAUACAGTT against 2810410L24Rik”, the z-score was inactive: 0.945.
